Data: PubChem BioAssay AID1508615 (Milbrandt Lab, Department of Genetics, Washington …, 2020)
Screen size: about 1,600 compounds; about 20 (1%) were called active.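 How the source made its calls: active means ratio of uncleaved NAD to its breakdown product ADP-ribose above 4, meaning the enzyme was inhibited; inactive means the rest.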 The list shows a part of the results.

Amino acid sequences for entries named in this document (tags omitted). A change or cut given only in a name is not applied to a line headed by its entry.
UniProt Q6SZW1: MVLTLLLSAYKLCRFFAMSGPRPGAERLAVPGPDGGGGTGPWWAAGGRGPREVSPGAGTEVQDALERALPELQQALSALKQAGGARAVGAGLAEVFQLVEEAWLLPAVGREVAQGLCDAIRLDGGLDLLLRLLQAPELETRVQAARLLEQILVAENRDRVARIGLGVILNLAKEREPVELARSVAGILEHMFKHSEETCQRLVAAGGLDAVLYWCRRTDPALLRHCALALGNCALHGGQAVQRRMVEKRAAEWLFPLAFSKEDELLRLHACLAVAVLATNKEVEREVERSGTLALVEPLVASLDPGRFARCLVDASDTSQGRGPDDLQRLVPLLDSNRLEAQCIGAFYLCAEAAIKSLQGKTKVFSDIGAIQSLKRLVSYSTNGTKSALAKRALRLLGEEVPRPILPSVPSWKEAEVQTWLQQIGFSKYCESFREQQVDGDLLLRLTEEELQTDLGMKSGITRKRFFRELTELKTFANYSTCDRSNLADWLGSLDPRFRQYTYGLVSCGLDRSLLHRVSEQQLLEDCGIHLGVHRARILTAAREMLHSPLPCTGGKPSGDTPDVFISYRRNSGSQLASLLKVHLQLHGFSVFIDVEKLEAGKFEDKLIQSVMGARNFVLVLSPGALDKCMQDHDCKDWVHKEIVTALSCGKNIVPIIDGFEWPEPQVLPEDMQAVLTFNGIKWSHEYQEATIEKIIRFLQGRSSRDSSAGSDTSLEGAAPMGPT

target: NAD(+) hydrolase SARM1 (Homo sapiens) (UniProt Q6SZW1); experiment: SARM1 TIR NADase inhibitors by HPLC, primary screen, cell lysate, HPLC readout (AID 1508615); conditions: HEK293T SAM-TIR lysate, at 5 µM, hits give high values;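 further: substrate NAD at 5 µM with 60 min at 37 °C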

NAD/ADPR ratio, inactive:
CCC1=C(c2ccc(OC)cc2)CCC(C(=O)O)C1C (configuration not stated) 3, NC1=C(O)C(=O)C(c2ccccc2)O1 (configuration not stated) 3, CC(C)COC(=O)NC1c2ccccc2Oc2ccccc21 3, CNC(=O)c1nn(C)c(=O)[nH]c1=O 3, Cn1c(=S)c2[nH]c(SCCN3CCCC3)nc2n(C)c1=O 3, Cc1cc(=O)[nH]c(N)n1 3, Nc1ccc(N=Nc2ccc(O)cc2)c(N)n1 3, CC(=O)OCC1OC(COC(C)=O)(c2ccc(C)cc2)C(OC(C)=O)C1OC(C)=O (configuration not stated) 3, CCCCNc1nc(N)ncc1[N+](=O)[O-] 3, CCOC(=O)c1ccc(Nc2sc(C(=O)c3cccc([N+](=O)[O-])c3)c(N)c2C#N)cc1 3, CCN(c1ccccc1)c1nc(Cl)nc2c1cnn2C 3, Nc1nc(=S)c2ncn(C3CCCC3)c2[nH]1 3, C#CC1(N2CCCCC2)CCCCC1 3, C=CCNC(=S)N1CCN(c2ccccc2Cl)CC1 3, Cc1csc(N=Nc2ccc(N(C)C)cc2)[n+]1[O-] 3, N#CC(c1ccccc1)C(C/C(=N/O)c1ccccc1)c1ccccc1 (configuration not stated) 3, CC12CCC(C(NC(=S)NN)C1=O)C2(C)C (configuration not stated) 3, Cc1cnc2c(N)cc(C)c(C)c2c1 3, c1ccc(-n2c3ccccc3c3ccccc32)cc1 3, CC(C)(C)c1ccc(OCC(=O)O)cc1 3, Cc1cc2cc3n(c2nn1)N=C(Cl)CC3 3, O=C(Nc1cccc([N+](=O)[O-])c1)c1ccc2ccccc2c1O 3, c1cc2c3c(cccc3c1)NC1(CCC3(CC1)Nc1cccc4cccc(c14)N3)N2 3, N#CN=CN1CC=C(c2ccc(Cl)cc2)CC1 3, CCCCCn1cnc2c(=S)nc(N)[nH]c21 3, COc1ccc(C2=NC(=O)NC2c2ccc(OC)cc2)cc1 (configuration not stated) 3, NCc1c(O)ccc2ccccc12 3, O=C(Nc1ccc(Cl)cc1)c1cc2c(cc1O)[nH]c1ccccc12 3, O=C1OCC/C1=C\NCCCCCCCCN/C=C1\CCOC1=O 3, CCCCOc1nc2c(c(=O)n(C)c(=O)n2C)n1C 3, CCOc1ccc2sc(NS(=O)(=O)c3ccc(N)cc3)nc2c1 3, O=C(O)c1nn(-c2ccccc2-c2n[nH]c(=O)[nH]c2=O)c(=O)[nH]c1=O 3, S=C1SCN(CCc2ccccc2)CN1CCc1ccccc1 3, O=[N+]([O-])c1cc([N+](=O)[O-])c2cccnc2c1O 3, CN(C)S(=O)(=O)c1ccc(N)c([N+](=O)[O-])c1 3, [O-][n+]1ccc(CC(O)(C(F)(F)F)C(F)(F)F)cc1 3, Cc1nccnc1Sc1ccccc1 3, COc1ccc2c(n1)Sc1nc3ccccc3nc1N2 3, CC(C)n1cnc2c(=S)nc[nH]c21 3, Clc1ccc(/C=C/c2nc(Cl)c(-c3ccc(Cl)cc3)c(Cl)n2)cc1 3, O=C(O)C1C2OC3C(OC(=O)C31)C2Br (configuration not stated) 3, C#CCSc1nnnn1-c1ccc(Br)c(C)c1 3, Cc1ccn(C)c(=N)c1 3, Cn1c(N)c(C(=O)/C=C/c2ccccc2)c(=O)[nH]c1=O 3, NC1=NC(c2ccc(Cl)cc2)N(c2ccc(S(N)(=O)=O)cc2)C(N)=N1 (configuration not stated) 3, Oc1ccc2ccccc2c1N=Nc1ccc(F)cc1 3, Cc1nnc(-n2cccc2)s1 3, COc1cc2c(NCCCCCO)ncnc2c(OC)c1OC 3, OC(c1cc(-c2ccc(Cl)cc2)nc2ccccc12)C1CCCCN1 (configuration not stated) 3, NC(=O)c1ccccc1NC(=O)c1ccccc1Cl 3, COc1ccc(Nc2cc(C)nc(N)n2)cc1 3, CNc1ncnc2c1cnn2C1CCCCO1 (configuration not stated) 3, O=P(O)(O)c1cc(-c2ccccc2)oc1-c1ccccc1 3, Cc1nc(NCc2ccccc2)c2cc[nH]c2n1 3, COc1cc(C(=O)C(=O)c2cc(OC)c(O)c(OC)c2)cc(OC)c1O 3, Cc1cc(O)c(C(C)C)cc1NC(=O)Nc1cccc2ccccc12 3, COc1cc2c(cc1OC)[C@H]1C(=O)c3cc(OS(C)(=O)=O)c(OC)cc3[C@H]1N(C)C2=O 3, CCOc1ccc(NC(=O)Nc2cc(C(C)C)ccc2C)cc1 3, N#Cc1nnn2c1nc(N)c1c(Cl)cccc12 3, COc1cc(NC(C)=O)c2ncccc2c1Br 3, O=C(Nc1ccc(F)cc1)OCCOc1ccc(Br)cc1 3, CC1(C)CCSC(/C=C/c2ccccc2)=N1 3, Nc1nc(SCc2ccccc2)sc1C(=O)N1CCCCC1 3, OCC1(CO)CC2(C1)CC(CO)(CO)C2 3, C/C(=N/O)C1CCC2C3CCC4C/C(=N/O)CCC4(C)C3C(C)(O)CC12C (configuration not stated) 3, CCOC(=O)C(=Cc1ccc(Br)cc1)C(=O)OCC 3, CCOCCc1c(O)nc(SC)[nH]c1=O 3, Cn1c(=O)c2[nH]c(COc3ccc(C(C)(C)C)cc3)nc2n(C)c1=O 3, COc1ccc2c(c1)C(=O)C1NC(=O)NC(=O)C1(Br)N2 (configuration not stated) 3, COc1cccc(/C=C/c2nccc3ccccc23)c1OC 3, NC(=O)c1cc2c3ccccc3ccn2c1-c1ccccc1 3, CC1CO/C(=C2\C(=O)OCC2C)C1 (configuration not stated) 3, COc1ccc2c(c1)CCN1C2CCN2C(=O)CCC21 (configuration not stated) 3, CC1CC(C)(C)NC2(CCCC2)N1 (configuration not stated) 3, COC(=NC(C)C)NC(C)C 3, Cc1c2cc(O)c(=O)cc-2oc2cc(O)c(O)cc12 3, CCOC(=O)c1cc(-c2cccnc2)nc2c(Cl)cc(Cl)cc12 3
